Measurements published in paper PMC8589989.

Target: GFP-tagged ZNF384 (isoform 2, containing 6 C2H2 motifs) (human)
Assay: affinity purification with mass spectrometry; GFP-Trap pull-down of GFP-ZNF384 versus GFP-NLS from U2OS Flp-In/T-Rex lysate (EBC buffer: 50 mM Tris pH 7.5, 150 mM NaCl, 0.5% NP-40, 2 mM MgCl2, benzonase), label-free MS

binding: no binding
B1: endogenous APLF (protein, UniProt Q8IW19 1-511)
chain: MSGGFELQPRDGGPRVALAPGETVIGRGPLLGITDKRVSRRHAILEVAGGQLRIKPIHTNPCFYQSSEKSQLLPLKPNLWCYLNPGDSFSLLVDKYIFRILSIPSEVEMQCTLRNSQVLDEDNILNETPKSPVINLPHETTGASQLEGSTEIAKTQMTPTNSVSFLGENRDCNKQQPILAERKRILPTWMLAEHLSDQNLSVPAISGGNVIQGSGKEEICKDKSQLNTTQQGRRQLISSGSSENTSAEQDTGEECKNTDQEESTISSKEMPQSFSAITLSNTEMNNIKTNAQRNKLPIEELGKVSKHKIATKRTPHKEDEAMSCSENCSSAQGDSLQDESQGSHSESSSNPSNPETLHAKATDSVLQGSEGNKVKRTSCMYGANCYRKNPVHFQHFSHPGDSDYGGVQIVGQDETDDRPECPYGPSCYRKNPQHKIEYRHNTLPVRNVLDEDNDNVGQPNEYDLNDSFLDDEEEDYEPTDEDSDWEPGKEDEEKEDVEELLKEAKRFMKRK

Results are given in words; binding and its absence hold for the method and conditions named. In cells and extracts the contact can be indirect. These calls come from enrichment with a bait or labelling near it, and not all partners need be listed. A no says only that the protein was not detected with the bait.
